According to patent US20240409643A1, “ANTI-NMDAR2B ANTIBODIES, ANTIBODY-DRUG CONJUGATES, AND CHIMERIC ANTIGEN RECEPTORS, AND COMPOSITIONS AND METHODS OF USE” (THE TRUSTEES OF DARTMOUTH COLLEGE, priority 2021, published 2024):
These are yes or no findings as the source states them, for the method shown. Some results given as binding are weak or reduced against the parent protein; the word gives no strength. Ends that are not written are not given here.

Amino acid sequences for entries named in this document (tags omitted). A change or cut given only in a name is not applied to a line headed by its entry.
UniProt Q13224: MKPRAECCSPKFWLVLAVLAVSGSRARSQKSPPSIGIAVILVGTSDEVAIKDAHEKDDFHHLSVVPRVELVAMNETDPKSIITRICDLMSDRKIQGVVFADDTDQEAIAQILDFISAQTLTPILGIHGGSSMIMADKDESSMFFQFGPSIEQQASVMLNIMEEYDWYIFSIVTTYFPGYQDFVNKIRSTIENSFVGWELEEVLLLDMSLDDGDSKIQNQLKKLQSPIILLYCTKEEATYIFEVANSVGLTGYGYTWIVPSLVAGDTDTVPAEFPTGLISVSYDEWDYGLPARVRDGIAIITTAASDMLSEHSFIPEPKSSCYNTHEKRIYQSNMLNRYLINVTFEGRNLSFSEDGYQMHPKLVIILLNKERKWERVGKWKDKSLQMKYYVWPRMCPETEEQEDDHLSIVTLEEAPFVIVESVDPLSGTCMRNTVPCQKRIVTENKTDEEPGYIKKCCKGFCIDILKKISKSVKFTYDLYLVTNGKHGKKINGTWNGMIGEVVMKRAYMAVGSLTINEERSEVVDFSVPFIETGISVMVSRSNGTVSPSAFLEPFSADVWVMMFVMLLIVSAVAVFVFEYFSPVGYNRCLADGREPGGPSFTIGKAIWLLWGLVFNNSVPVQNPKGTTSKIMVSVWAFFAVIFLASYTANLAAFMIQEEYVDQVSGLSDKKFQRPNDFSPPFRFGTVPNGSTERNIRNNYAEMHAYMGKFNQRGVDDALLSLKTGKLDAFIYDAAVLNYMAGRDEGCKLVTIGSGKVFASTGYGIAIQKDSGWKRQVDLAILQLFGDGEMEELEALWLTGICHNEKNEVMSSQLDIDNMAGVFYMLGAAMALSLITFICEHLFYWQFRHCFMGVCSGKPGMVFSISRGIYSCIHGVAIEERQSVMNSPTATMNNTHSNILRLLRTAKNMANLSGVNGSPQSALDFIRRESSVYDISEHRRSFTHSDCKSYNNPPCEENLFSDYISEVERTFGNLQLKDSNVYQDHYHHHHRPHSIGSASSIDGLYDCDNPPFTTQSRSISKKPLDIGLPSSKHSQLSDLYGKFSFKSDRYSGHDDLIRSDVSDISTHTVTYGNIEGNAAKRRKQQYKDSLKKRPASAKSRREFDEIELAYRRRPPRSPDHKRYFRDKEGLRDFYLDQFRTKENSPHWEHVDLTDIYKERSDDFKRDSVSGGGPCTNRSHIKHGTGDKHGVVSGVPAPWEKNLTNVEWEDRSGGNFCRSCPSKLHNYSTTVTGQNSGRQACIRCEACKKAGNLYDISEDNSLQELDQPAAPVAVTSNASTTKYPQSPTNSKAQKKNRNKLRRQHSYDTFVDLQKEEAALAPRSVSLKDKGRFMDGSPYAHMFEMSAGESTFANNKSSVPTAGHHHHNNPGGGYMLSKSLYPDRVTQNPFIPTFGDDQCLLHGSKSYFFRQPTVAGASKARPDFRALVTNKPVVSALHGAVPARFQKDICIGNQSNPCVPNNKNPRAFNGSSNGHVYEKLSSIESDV

Legend:
[1] = target: Human NMDAR2B on NCI-H82 small-cell lung cancer cells (human) (UniProt Q13224); experiment: flow cytometry, NCI-H82 cells
[2] = target: Human NMDAR2B on NCI-H82 small-cell lung cancer cells (human) (UniProt Q13224); experiment: flow cytometry on live and 4% paraformaldehyde-fixed NCI-H82 cells, Fab at 5 ug/mL, FITC anti-human IgG (Example 9)
[3] = target: Human NMDAR2B on NCI-H82 small-cell lung cancer cells (human) (UniProt Q13224); experiment: flow cytometry, NCI-H82 cells, Fab at 5 µg/mL

binding [1] | binding [2] | binding [3] | Binder
binds | binds | binds | Fab9 (Fab, V domains shown, also called Ab9 (IgG form with the same VH and VL)) VH: EVQLVESGGGLVQPGGSLRLSCAASGFNLSYSSMHWVRQAPGKGLEWVASISPYSGSTYYADSVKGRFTISADTSKNTAYLQMNSLRAEDTAVYYCARYYWYYYYGFDYWGQGTLVTVSS VL: DIQMTQSPSSLSASVGDRVTITCRASQSVSSAVAWYQQKPGKAPKLLIYSASSLYSGVPSRFSGSRSGTDFTLTISSLQPEDFATYYCQQYVGYGSPITFGQGTKVEIK
binds |  | binds | Fab4 (Fab, V domains shown, also called Ab4 (IgG form with the same VH and VL)) VH: EVQLVESGGGLVQPGGSLRLSCAASGFNLYYYSIHWVRQAPGKGLEWVAYISSYYGYTYYADSVKGRFTISADTSKNTAYLQMNSLRAEDTAVYYCARYYPGGWHAFDYWGQGTLVTVSS VL: DIQMTQSPSSLSASVGDRVTITCRASQSVSSAVAWYQQKPGKAPKLLIYSASSLYSGVPSRFSGSRSGTDFTLTISSLQPEDFATYYCQQYYGYGYPITFGQGTKVEIK
binds |  | binds | Fab10 (Fab, V domains shown, also called Ab10 (IgG form with the same VH and VL)) VH: EVQLVESGGGLVQPGGSLRLSCAASGFNLYSSYMHWVRQAPGKGLEWVASISSSYGYTYYADSVKGRFTISADTSKNTAYLQMNSLRAEDTAVYYCARTVRGSKKPYFSGWAMDYWGQGTLVTVSS VL: DIQMTQSPSSLSASVGDRVTITCRASQSVSSAVAWYQQKPGKAPKLLIYSASSLYSGVPSRFSGSRSGTDFTLTISSLQPEDFATYYCQQGSYLITFGQGTKVEIK
binds |  | binds | Fab7 (Fab, V domains shown, also called Ab7 (IgG form with the same VH and VL)) VH: EVQLVESGGGLVQPGGSLRLSCAASGFNFSSSSIHWVRQAPGKGLEWVASISSSYGYTYYADSVKGRFTISADTSKNTAYLQMNSLRAEDTAVYYCARTVRGSKKPYFSGWAMDYWGQGTLVTVSS VL: DIQMTQSPSSLSASVGDRVTITCRASQSVSSAVAWYQQKPGKAPKLLIYSASSLYSGVPSRFSGSRSGTDFTLTISSLQPEDFATYYCQQGSHLITFGQGTKVEIK
binds | binds | binds | Fab8 (Fab, V domains shown, also called Ab8 (IgG form with the same VH and VL)) VH: EVQLVESGGGLVQPGGSLRLSCAASGFNIYYSYMHWVRQAPGKGLEWVASISSSYGYTYYADSVKGRFTISADTSKNTAYLQMNSLRAEDTAVYYCARTVRGSKKPYFSGWAMDYWGQGTLVTVSS VL: DIQMTQSPSSLSASVGDRVTITCRASQSVSSAVAWYQQKPGKAPKLLIYSASSLYSGVPSRFSGSRSGTDFTLTISSLQPEDFATYYCQQASYLITFGQGTKVEIK
binds |  | binds | Fab6 (Fab, V domains shown, also called Ab6 (IgG form with the same VH and VL)) VH: EVQLVESGGGLVQPGGSLRLSCAASGFNIYSSYIHWVRQAPGKGLEWVASISSSYGYTYYADSVKGRFTISADTSKNTAYLQMNSLRAEDTAVYYCARTVRGSKKPYFSGWAMDYWGQGTLVTVSS VL: DIQMTQSPSSLSASVGDRVTITCRASQSVSSAVAWYQQKPGKAPKLLIYSASSLYSGVPSRFSGSRSGTDFTLTISSLQPEDFATYYCQQGGSLITFGQGTKVEIK
binds |  | binds | Fab5 (Fab, V domains shown, also called Ab5 (IgG form with the same VH and VL)) VH: EVQLVESGGGLVQPGGSLRLSCAASGFNLYSSYMHWVRQAPGKGLEWVASIYSSYSSTYYADSVKGRFTISADTSKNTAYLQMNSLRAEDTAVYYCARTVRGSKKPYFSGWAMDYWGQGTLVTVSS VL: DIQMTQSPSSLSASVGDRVTITCRASQSVSSAVAWYQQKPGKAPKLLIYSASSLYSGVPSRFSGSRSGTDFTLTISSLQPEDFATYYCQQGAGLITFGQGTKVEIK
